Results are given in words; binding and its absence hold for the method and conditions named. Some binding calls cover weakened binding; strength is not graded here.
Target: Wild-type FlgD expressed in E. coli BL21(DE3), whole-cell fraction (Salmonella enterica serovar Typhimurium) (UniProt P0A1I9)
Assay: native gel or EMSA; native PAGE under a non-denatured condition of whole-cell fractions of E. coli BL21(DE3) expressing FlgD or deletion variants, immunoblot with anti-FlgD antibody

Protein sequences, listed by entry. Tags and fused reporters are not part of them.
UniProt P0A1I9: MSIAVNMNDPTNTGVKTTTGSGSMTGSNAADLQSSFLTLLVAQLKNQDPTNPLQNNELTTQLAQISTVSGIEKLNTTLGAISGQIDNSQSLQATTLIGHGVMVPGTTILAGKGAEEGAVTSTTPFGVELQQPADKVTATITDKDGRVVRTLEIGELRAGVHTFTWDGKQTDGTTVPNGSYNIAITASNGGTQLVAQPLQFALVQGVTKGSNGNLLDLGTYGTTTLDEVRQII

Wild-type FlgD expressed in E. coli BL21(DE3), whole-cell fraction (from UniProt P0A1I9 1-232)
binding: binds
